# Percent effect of library compounds

The values are deposited in ChEMBL (CHEMBL3988442, “University of Dundee, Small-Polar-MMV Screening Library” (2021)).

The filed quantity is “Percent Effect” (%). How 0% and 100% were set is not recorded. Most values in the screen are low, and negative values occur. Compounds were drawn at random from those tested, without regard to their results. Two or more numbers in one place are separate tests of the same structure; such repeats can differ widely.

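Whole-cell growth test on Mycobacterium tuberculosis, read after 3 days in glucose-containing 7H9 medium; the read-out is not stated. Compounds at 50 µM. Direction is inferred from retests: higher values go with more growth inhibition. Of about 69,000 compounds tested this way, about 760 (1.1%) reached 50% or more in at least one test.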

- Cc1ncnc2c1CCN(C(=O)c1ccoc1)CC2 : 3.588% & 1.695%
- c1ccc(-n2ccc(CNC3CCc4ncnn4C3)n2)cc1 (centres undefined) : -2.967%
- O=C(N[C@@H]1CCC[C@@H](N2CCOCC2)[C@@H]1O)c1ncccn1 : -0.5522%
- CN1C(=O)CCCC12CCCN(C(=O)c1ccc3c(c1)OCO3)C2 (centres undefined) : -6.228%
- Cc1cc(C(=O)NCCc2c(C)nn(C)c2C)nc(N2CCCCC2)n1 : -1.812%
- O=C(C1CCCO1)N1CCC(Cn2cc(C3CCCC3)nn2)CC1 (centres undefined) : -13.29% & 5.111%
- Cc1nc(-c2ccccc2)ccc1C(=O)N1CCN(CCO)CC1 : -7.141%
- COc1ncccc1NC(=O)N1CCC(CNC(C)=O)CC1 : -32.77%
- Cn1cnnc1C1CCN(C(=O)c2cc3c(s2)CCCC3)CC1 : 2.118% & -18.34%
- O=C(O)C(F)(F)F.[H][C@]12CCC[C@@]1(COCc1ccncc1)CN(C(=O)c1ncccn1)C2 : -3.118%
- Cc1ccc2nc(-c3cnc(N)nc3)cc(C(=O)N(C)C)c2c1 : 5.06%
- Cc1nn(C)c(N(C)C)c1CNCc1ccc(N(C)C)nc1 : 20.08% & 2.806%
- CCc1nnc(CN(C)c2nc(C(C)C)nc3c2cnn3C)o1 : -0.1892% & 6.091%
- Cc1nc(CNCC(O)COc2ccc3c(c2)OCO3)cs1 (centres undefined) : -0.9121% & -28.22%
- Cc1nccc(N2C[C@H](NC(=O)CNS(C)(=O)=O)[C@@H](C3CC3)C2)n1 : 17.22%
- Cn1c(C(F)(F)F)nn(CCNC(=O)Nc2ccccc2F)c1=O : 16.55%
- Cc1noc(C)c1CN(Cc1cccs1)C1CCS(=O)(=O)C1 (centres undefined) : -41.18%
- Cc1ccccc1-c1cncc(C2CCN(Cc3ccccn3)CC2)n1 : -6.344%
- CSc1nccc(N2CCC(NCCN3CCOCC3)CC2)n1 : -3.315% & -1.656%
- O=C(O)C(F)(F)F.O=C(O)C(F)(F)F.[H][C@@]12CN(Cc3ccoc3)C[C@]1([H])C(=O)N(Cc1ccncc1)C2 : -16.97%
- Cc1ccc(S(=O)(=O)NCCOc2ccc3nnc(C)n3n2)s1 : 3.78%
- COc1ccc2c(c1)C(=O)N(C)C1(CCN(C(=O)OC(C)(C)C)CC1)N2 : -14.46% & -7.015%
- O=C(O)C(F)(F)F.[H][C@]12CN(CCc3ccccc3)C[C@@]1([H])S(=O)(=O)CC[C@@H]2C(=O)NC1CCC1 : -14.09% & -10.42%
- COCCN1CCc2c(cnc(-c3ccoc3)c2C(=O)O)C1.O=C(O)C(F)(F)F : -18.66%
- O=C(O)C(F)(F)F.[H][C@@]12COC[C@]1(COCC(=O)N(C)C)CN(Cc1sccc1C)C2 : -1.11%
- CCOc1ccc(N2CCCN=C2NC(=O)c2cccc(C)c2)cc1 : -5.993%
- O=C(O)C(F)(F)F.[H][C@@]12COC[C@H](C(=O)N3CCOCC3)[C@]1([H])CN(CC1CCCC1)C2 : -11.38% & -5.751%
- Cc1nc(N2CCCN(C(=O)c3ccsc3)CC2)c2cnn(C)c2n1 : -3.043% & -6.329%
- CC(C)NC(=O)N1CCC(c2nnc3n2CCNC3)CC1 : 2.765%
- COc1ccc(C(C)NC(=O)c2nn(C)c(C)c2Br)cc1 (centres undefined) : -28.43% & -2.309%
- Cc1cccc2nc(CSCC(=O)Nc3nnc(C(C)C)s3)cc(=O)n12 : 7.469%
- CC(C)(C)c1n[nH]c(C2CN(C(=O)c3ccsc3)CCO2)n1 (centres undefined) : -7.785%
- COc1cccc(F)c1C(C)NC(=O)NCc1cc(C(C)C)no1 (centres undefined) : 25.42%
- Fc1ccc(OCc2nnc([C@H]3CCN(Cc4cccnc4)C3)o2)cc1 : -21.95% & 0.7331%
- CCn1nnc2c1C(COCCN(C)C)CN(S(C)(=O)=O)C2.O=C(O)C(F)(F)F (centres undefined) : -28.87% & 3.688%
- Cc1noc(C)c1Cc1nc(C2CC2)no1 : -8.74% & 2.34%
- COc1cccc(SCC(=O)N2CCC(N3CCCC(O)C3)CC2)c1 (centres undefined) : 11.71%
- COCC(C)N(C)C(=O)c1nc(S(C)(=O)=O)n2ccccc12 (centres undefined) : -29.07%
- COc1ccccc1NC(=O)CSC1CCc2ccccc2NC1=O (centres undefined) : -6.451%
- O=C(O)C(F)(F)F.[H][C@@]12CCN(c3cccnc3)C[C@]1([H])CN(C(=O)c1ccn(C)n1)C2 : -26.18%
- CCN(CC)[C@H]1C[C@@H](Cc2cc(CO)on2)C1(C)C : 30.91% & 1.607%
- Fc1cccnc1Oc1cc(F)c(CN2CCCC2)c(F)c1 : -17.58%
- O=C(O)C(F)(F)F.O=C(c1cccc(O)c1)N1CCC2(CCN2c2ncccn2)C1 (centres undefined) : 10.22%
- COc1ccc2c(ccn2CC(=O)N2CCCC2Cn2cccn2)c1 (centres undefined) : 11.3% & -1.847%
- CC(C)S(=O)(=O)CC(=O)N1CCCC(n2ccnc2)C1 (centres undefined) : -32.79%
- Cc1nc(CN2CCCC(NCc3cnn(C)c3)C2)no1 (centres undefined) : 19.38%
- CCn1nc(C)c(CCn2ccnc2-c2cc3n(n2)CCNC3)c1C : -3.545% & 20.87%
- CC(C)CN1CCC(C(=O)NCCNC(=O)c2ccccc2)CC1 : 2.772% & 0.6088%
- CCOC(C)C(=O)Nc1ccc(Sc2nncn2C)c(Cl)c1 (centres undefined) : 12.46%

Repeated from the top, 6 entries:

With Cc1ncnc2c1CCN(C(=O)c1ccoc1)CC2 the screen gave 3.588% & 1.695%.
With c1ccc(-n2ccc(CNC3CCc4ncnn4C3)n2)cc1 (centres undefined) the screen gave -2.967%.
With O=C(N[C@@H]1CCC[C@@H](N2CCOCC2)[C@@H]1O)c1ncccn1 the screen gave -0.5522%.
With CN1C(=O)CCCC12CCCN(C(=O)c1ccc3c(c1)OCO3)C2 (centres undefined) the screen gave -6.228%.
With Cc1cc(C(=O)NCCc2c(C)nn(C)c2C)nc(N2CCCCC2)n1 the screen gave -1.812%.
With O=C(C1CCCO1)N1CCC(Cn2cc(C3CCCC3)nn2)CC1 (centres undefined) the screen gave -13.29% & 5.111%.